This passage reports odorant receptor activation results from the odorant receptor screen of Mainland et al. (2015).

Values joined by “and” are separate entries in the source; they are usually repeats but may differ in a detail not shown here. Equal values may be shown once. Some of the results follow. Single wells; the ratio to wells without odorant was worked out here, and repeats agree poorly.

Holding throughout (experiment): odorant receptor activation (CRE luciferase / Renilla) (fold of no-odor wells); higher = more activation
Conditions in all cases: 100 µM

Test [1] has as its system OR2J2 Y74H/T111A/V146A/T218A clone 1402.
Test [2] deals with OR2J2 clone 1403.
Test [3] concerns OR2J2 clone 1404.
The test system of test [4] is OR2J3 I228V/M261I clone 1616.
In test [5] the test system is OR2K2 clone 1340.
Test [6] concerns OR2K2 clone 1450.
In test [7] the test system is OR2L13 clone 1481.
The subject of test [8] is OR2L2 clone 1465.
In test [9] the test system is OR2L3 clone 1526.
For test [10], the system named is OR2L5 clone 1697.

For the compound `O=C1CCCCCCCCCCCC(=O)OCCO1` [ethylene brassylate], the odorant receptor activation came to 1.89 in [1]; 1.42 in test [2]; 1.41 in test [3]; 3.75 in test [4]; 1.37 in test [5]; 1.82 in test [6]. The odorant receptor activation in test [7] worked out at 1.28; in [8], 1.35; in [9] it was 1.17; in test [10], 1.05.

Turning to `CC1CCC(C(C)C)C(O)C1` (single isomer, unassigned; (-)) [(-)-menthol], the odorant receptor activation in [1] was 0.676; in [2] it was 0.803; in [3], 0.849; in test [4] it was 1.8; in [5], 0.225; in test [6] it was 1.21. Also, the odorant receptor activation stood at 1.53 in test [7], 3.44 in test [8], 3.65 in test [9] and 0.74 in [10].

On to `C=CCc1ccc(OC)c(OC)c1` [eugenol methyl ether], for which the odorant receptor activation in test [1] was found to be 1.81; in test [2], 1.4; in test [3] it was 2.76; in [4] it was 1.77; in test [5] it was 1.59; in [6], 1.55. Besides, the odorant receptor activation in [7] turned out to be 1.41; in test [8], 1.33; in [9], 1.44; in test [10], 0.864.

In the case of `CCCCCCCOC(C)=O` [heptyl acetate], the odorant receptor activation in test [1] is 0.958; in test [2] it was 0.872; in [3], 1.3; in [4], 1.2; in test [5], 0.933 and 1.07; in [6], 1.14. The odorant receptor activation in test [7] was 0.926 and 1.11; in test [8] it was 0.934 and 1.3; in test [9] it was 0.708 and 1.17; in [10], 0.695.

Take `O=CCc1ccccc1` [phenyl acetaldehyde]: the odorant receptor activation turned out to be 1.11 in test [1]; 1.45 in test [2]; 1.88 in [3]; 1.47 in [4]; 0.885 in [5]; 1.16 in test [6]. Also, the odorant receptor activation in test [7] was found to be 1.24; in [8], 1.61; in [9], 0.997; in test [10], 2.34.

On to `C=CCc1ccc(OC(C)=O)c(OC)c1` [eugenol acetate], for which the odorant receptor activation was 1.76 in test [1]; 1.55 in [2]; 2.77 in [3]; 3.11 in test [4]; 1.3 in test [5]; 1.49 in [6]. The odorant receptor activation in test [7] was determined as 1.54; in [8], 2.08; in test [9] it was 1.74; in test [10] it was 1.83.

Turning to `CC12CCC(C1)C(C)(C)C2=O` (stereo not given) [fenchone], the odorant receptor activation in [1] came to 0.949; in test [2], 0.944; in test [3] it was 1.1; in test [4] it was 1.03; in test [5], 1.07; in test [6] it was 0.931. Further, the odorant receptor activation was 1.31 in [7], 1.09 in test [8], 1.05 in [9] and 0.834 in test [10].

For the compound `CC(=O)c1ccccc1` [acetophenone], the odorant receptor activation was 0.819 in test [1]; 1.05 in test [2]; 1.98 in [3]; 1.24 in [5]; 1.04 and 1.1 in test [6]; 1.06 and 0.982 in test [7]. The odorant receptor activation is 1.17 and 0.778 in test [8]; 1.03 and 0.784 in [9].

As to `CC1=NC(C)SC1C` (stereo not given), the odorant receptor activation was 0.911 in test [1]; 1.43 in [2]; 0.97 in test [3]; 1.54 in [5]; 1.04 and 1.21 in test [6]; 0.884 and 1.07 in test [7]. For the same compound, the odorant receptor activation in test [8] is 0.744 and 1.02; in test [9], 1.04 and 0.725.

Consider `C=C(C)C1CCC2=CC(=O)CC(C)C2(C)C1` (stereo not given) [amyl laurate], for which the figures for the odorant receptor activation in test [4] and in test [10] were 0.69 and 1.66, respectively.

Take `CC(C)(O)CCCC1=CCC(C=O)CC1` (stereo not given) [lyral]: the odorant receptor activation in test [4] came to 0.96; in test [10] it was 1.28.

As for `CC(C)CC(=O)O` [isovaleric acid], the odorant receptor activation in [1] is 0.898; in test [2], 0.866; in test [3], 0.927; in test [4], 0.826; in test [5], 0.791; in test [6] it was 1. In addition, the odorant receptor activation came out at 0.74 in test [7], 0.958 in [8], 0.871 in test [9] and 0.898 in [10].

For `CC(=O)OCC=C(C)CCC=C(C)C` [geranyl acetate], the odorant receptor activation in test [1] is 1.07; in test [2], 1.16; in [3], 1.59; in [4], 1.59; in [5], 1.38 and 1.06; in test [6] it was 1.36. In addition, the odorant receptor activation in [7] is 1.12 and 1.26; in [8], 1.12 and 1.64; in [9], 0.93 and 1.52; in test [10] it was 1.35.
